Results published in patent US10525115B2 (Immatics Biotechnologies GmbH, priority 2014, dated 2020).

What was measured:
Parameters in all cases: species or system human
[1] = tested on: BMNC of healthy donors; assay: HLA class I ligandome analysis (LC-MS/MS) of healthy donor BMNC; conditions: 5 BMNC samples; for Number of positive healthy donors (BMNC): HLA class I ligandome, second figure of the cell; for rep. frequency % in healthy donors (BMNC): source protein level
[2] = tested on: PBMC of healthy donors; assay: HLA class I ligandome analysis (LC-MS/MS) of healthy donor PBMC; conditions: 30 PBMC samples; for Number of positive healthy donors (PBMC): HLA class I ligandome, first figure of the cell; for rep. frequency % in healthy donors (PBMC): source protein level
[3] = tested on: primary AML samples; assay: HLA class I ligandome analysis (W6/32 immunoaffinity purification, LC-MS/MS) of primary AML samples; conditions: 15 AML samples; for Number of positive AMLs: HLA class I ligandome; for rep. frequency % in AMLs: source protein level, HLA class I
[4] = tested on: cancer tissues in comparison to non-cancerous tissues and organs; assay: Presentation profile / over-presentation by label-free LC-MS (XPRESIDENT), tumor versus normal tissues, other proliferative diseases; conditions: other proliferative diseases / organs (other than AML) that over- or exclusively present the peptide; Table 5
[5] = tested on: primary AML samples; assay: HLA class II ligandome analysis (LC-MS/MS) of primary AML samples; conditions: HLA class II ligandome, AML patients n=12

Substance | Number of positive healthy donors (BMNC) [1] | rep. frequency % in healthy donors (BMNC) [1] | Number of positive healthy donors (PBMC) [2] | rep. frequency % in healthy donors (PBMC) [2] | Number of positive AMLs [3] | rep. frequency % in AMLs [3] | Proliferative disease and location thereof [4] | Number of positive AMLs [5]
MUC1 mucin 1, cell surface associated: established AML-associated antigen, source protein of the HLA ligands listed under it | 0 | 0.0% | 1 | 3.3% | 0 | 0.0% | – | –
MCL1 myeloid cell leukemia sequence 1: established AML-associated antigen, source protein of the HLA ligands listed under it | 0 | 0.0% | 15 | 50% | – | – | – | –
KLF2 kruppel like factor 2: established AML-associated antigen, source protein of the HLA ligands listed under it | 0 | 0.0% | – | – | 4 | 26.7% | – | –
NPM1 nucleophosmin: established AML-associated antigen, source protein of the HLA ligands listed under it | 1 | 20.0% | – | – | 9 | 60.0% | – | –
475 (DVNEYAPVFKEKSYK; listed as Homo sapiens) [compound 475] | – | – | – | – | – | – | brain, glioblastoma, parotid gland, pleomorphic; adenoma | 1
521 (DKVYVHLKNLASRPY; listed as Homo sapiens) [compound 521] | – | – | – | – | – | – | kidney, clear cell renal cell carcinoma, liver, hepatocellular carcinoma | 1
WT1 Wilms tumor 1: established AML-associated antigen, source protein of the HLA ligands listed under it | 0 | 0.0% | – | – | 3 | 20.0% | – | –
514 (GRPFADVLSLSDGPPG; listed as Homo sapiens) [compound 514] | – | – | – | – | – | – | lung, non-small cell lung carcinoma, liver, hepatocellular carcinoma | 1
597 (GNQLFRINEANQLMQ; listed as Homo sapiens) [compound 597] | – | – | – | – | – | – | stomach, adenocarcinoma, prostate, adenocarcinoma | 2
541 (SDTSYVSLKAPLTKP; listed as Homo sapiens) [compound 541] | – | – | – | – | – | – | liver, hepatocellular carcinoma, cancer | 2
522 (GDKVYVHLKNLASRPY; listed as Homo sapiens) [compound 522] | – | – | – | – | – | – | kidney, clear cell renal cell carcinoma, liver, hepatocellular carcinoma | 1
493 (LPQLVGVSTPLQGG; listed as Homo sapiens) [compound 493] | – | – | – | – | – | – | kidney, clear cell renal cell carcinoma, endometrium, adenocarcinoma | 1
603 (FEGQFSINKVPGNFH; listed as Homo sapiens) [compound 603] | – | – | – | – | – | – | kidney, clear cell renal cell carcinoma, prostate, adenocarcinoma | 3
554 (ISDYVFNTASLVYHEE; listed as Homo sapiens) [compound 554] | – | – | – | – | – | – | liver, hepatocellular carcinoma, cancer | 3
579 (RRIQLVEEELDRAQER; listed as Homo sapiens) [compound 579] | – | – | – | – | – | – | pancreas, adenocarcinoma, intramuscular lipoma | 1
